The values below come from US11421001B2 (UNIVERSITAET ZUERICH, priority 2007, dated 2022).

Non-standard residues stand in square brackets, D forms with d. No end group written: not given here. Dab = NCC[C@H](N)C(=O)O

This series in a line: general procedure: Fmoc solid-phase peptide synthesis; Fmoc-Pro-2-chlorotrityl resin (2-chlorotritylchloride resin, 100-200 mesh, Novabiochem). To be noted: whole synthesis, UV, scale of the general procedure approximately 60 mg resin per vessel.

Regarding “P[dP]KQYCYR[Dab][dP]ASCAHY (cysteine pairing not given here)”, the “final HPLC purity” value amounted to 72%.
Next, “P[dP]KQYCYR[Dab][dP]ASCYHY (cysteine pairing not given here)”: 82%.
